Data from patent US7250422B2, “Pharmaceutical composition containing berberine as effective ingredient for preventing and treating addiction or tolerance to morphine” (priority 2002, dated 2007).

Tests used:
mice = test: Hot-plate test, morphine tolerance caused by repeated administration; format: in vivo; settings: morphine 10 mg/kg s.c. once per day for six days, tested day 7; FIG. 4
Male ICR mice = settings: morphine 5 mg/kg s.c. single administration vs control; P<0.001; FIG. 3

`CN1CC[C@]23c4c5ccc(O)c4O[C@H]2[C@@H](O)C=C[C@H]3[C@H]1C5` [morphine] was tested, and the “initial analgesic effect after repeated administration (AUC), morphine tolerance” value (mice) was “greatly reduced” and the “analgesic effect (AUC of % MPE)” value (Male ICR mice) was “significantly increased analgesic effect”.
